Results are given in words; binding and its absence hold for the method and conditions named. Binding seen in cells or lysates may run through a third protein. Some results given as binding are weak or reduced against the parent protein; the word gives no strength.
Target: T1, TRIM26 WT, in vitro translated (not stated (the printed accession is the human entry)) (UniProt Q12899)
T1 sequence: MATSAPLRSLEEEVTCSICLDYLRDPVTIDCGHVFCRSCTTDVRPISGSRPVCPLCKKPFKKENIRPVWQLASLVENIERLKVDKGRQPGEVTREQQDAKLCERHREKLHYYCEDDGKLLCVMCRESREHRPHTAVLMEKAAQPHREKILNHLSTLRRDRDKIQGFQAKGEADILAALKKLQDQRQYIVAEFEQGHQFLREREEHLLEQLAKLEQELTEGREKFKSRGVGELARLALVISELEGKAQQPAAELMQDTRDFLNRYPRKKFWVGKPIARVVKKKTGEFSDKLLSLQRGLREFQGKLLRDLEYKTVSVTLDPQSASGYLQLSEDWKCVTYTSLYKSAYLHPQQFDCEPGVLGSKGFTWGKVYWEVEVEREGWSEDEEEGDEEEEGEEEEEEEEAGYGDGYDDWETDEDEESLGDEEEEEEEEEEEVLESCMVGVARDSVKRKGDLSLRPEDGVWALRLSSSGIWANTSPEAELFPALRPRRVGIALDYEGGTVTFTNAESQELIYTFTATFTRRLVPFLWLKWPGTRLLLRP
Assay: co-IP; in vitro binding: in vitro translated WT TRIM26 and WT IRF3 mixed together, IP with TRIM26 antibody, western blot with IRF3 antibody

B1: IRF3 WT, in vitro translated (protein, UniProt Q14653 1-427)
chain: MGTPKPRILPWLVSQLDLGQLEGVAWVNKSRTRFRIPWKHGLRQDAQQEDFGIFQAWAEATGAYVPGRDKPDLPTWKRNFRSALNRKEGLRLAEDRSKDPHDPHKIYEFVNSGVGDFSQPDTSPDTNGGGSTSDTQEDILDELLGNMVLAPLPDPGPPSLAVAPEPCPQPLRSPSLDNPTPFPNLGPSENPLKRLLVPGEEWEFEVTAFYRGRQVFQQTISCPEGLRLVGSEVGDRTLPGWPVTLPDPGMSLTDRGVMSYVRHVLSCLGGGLALWRAGQWLWAQRLGHCHTYWAVSEELLPNSGHGPDGEVPKDKEGGVFDLGPFIVDLITFTEGSGRSPRYALWFCVGESWPQDQPWTKRLVMVKVVPTCLRALVEMARVGGASSLENTVDLHISNSHPLSLTSDQYKAYLQDLVEGMDFQGPGES
- binding: binds

From article PMC4357427
